Results from PubChem BioAssay AID2685 (National Center for Advancing Translational Sciences (NCATS), 2010).
“And” between values parts separate entries of the source, which are not always exact repeats. Identical values can stand only once. The list shows a part of the results. These are further read-outs of the screen, such as a control signal, another cell line or another target. No call is given for them. Compounds called inactive in the main read-out are mostly missing here. The note in brackets gives the kind of curve behind each potency; many fits are weak.

Experiment: qHTS Assay for Lipid Storage Modulators in Drosophila S3 Cells;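 for cell number change: cells counted by Cell Tracker Red CMTPX staining in the red channel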
Conditions: BODIPY lipid droplet fluorescence, 18-24 h; for cell number change: measured here: cell count max response, cells fed with added oleic acid
How it was run: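 Laser-scanning cytometry quantifies lipid droplet accumulation (500–530 nm total intensity; droplet/cell object ratio) in oleic acid-fed (400 uM added) Drosophila S3 cells treated with a concentration series. 20 uM Triacsin C defined 100% inhibition.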

[1] = measured here: lipid fluorescence (Fed channel) AC50, cells fed with added oleic acid
[2] = measured here: cell number channel AC50, cells fed with added oleic acid

SMILES	cell number change	AC50 [1]	AC50 [2]
COc1ccc(NC(=O)N2C[C@@H]3C[C@@H](C2)c2cccc(=O)n2C3)c(OC)c1	20.1%	6.51 µM [falling, single point]	
CSc1nc(N)c(N=Nc2ccc([As](=O)(O)O)cc2)c(=O)[nH]1	-31.6%	1.64 µM [falling, partial curve]	
CC1=CC(=O)NP(=O)(Oc2ccc3ccccc3c2)N1 (stereo not drawn)	1.04%	5.17 µM [rising, full curve]	
N=Cc1c(O)n(-c2ccccc2)c(=O)n(-c2ccccc2)c1=O	-19.9%	23.1 µM [rising, single point]	
O=C(NC(=S)N1C[C@H]2C[C@H](C1)c1cccc(=O)n1C2)c1ccc(F)cc1	17.8%	0.58 µM [falling, single point]	
CCc1nc2ccccc2c(=O)n1-c1ccc2ccccc2c1	33.4%	13 µM [rising, partial curve]	13 µM [rising, partial curve]
Cn1c(O)c(C(=Nc2ccccc2)SCc2ccc(Cl)cc2)c(=O)n(C)c1=O	-19.8%	29.1 µM [falling, single point]	
CC1CCN2c3nc4ccccn4c(=O)c3CC3(C(=O)N(C)C(=O)N(C)C3=O)C2C1 (stereo not drawn)		2.06 µM [falling, partial curve]	
CCCCn1c(N)c(C(=O)NCCN2CCOCC2)c2nc3ccccc3nc21	-9.09%	18.4 µM [falling, single point]	6.51 µM [rising, single point]
CCCCN1CCC(C#N)(Nc2ccccc2)CC1	-26.6%	2.59 µM [falling, full curve]	3.26 µM [falling, full curve, poor fit]
CN(C)S(=O)(=O)c1cccc(C(=O)N2CCC(C(=O)O)(c3ccccc3)CC2)c1	21.7%		0.731 µM [rising, full curve, poor fit]
Cc1ccc2cc(C=C(C#N)C#N)c(Cl)nc2c1	-15.9%	32.6 µM [falling, single point]	
CCCCc1ncc(CN2CCCC(C(=O)c3ccc(SC)cc3)C2)[nH]1 (stereo not drawn)	-1.34%		
CCN(CC)C(=O)c1ccc(NC(=S)NC(=O)CCc2ccccc2)cc1	1.49%	6.51 µM [falling, single point]	
Cn1c(O)c(/C=N/c2ncccn2)c(=O)n(C)c1=O	-11.8%	0.206 µM [falling, full curve, poor fit]	0.184 µM [falling, full curve, poor fit]
Cn1cccc1/C=C1/C(=O)NC(=O)N(Cc2ccc(F)cc2)C1=O	-15.7%	0.184 µM [falling, full curve]	
CCCCCCCCCCCCCCCC[N+](C)(C)C	-47.6%		16.4 µM [falling, partial curve, poor fit]
Cc1ccc(S(=O)(=O)N2CCN(C(=O)COC(=O)Cc3ccccc3)CC2)c(C)c1	-16.5%		
Cc1c(C=O)c2ccccc2n1Cc1ccccc1	3.56%		
O=C(Cc1c(O)c2ccccc2oc1=O)c1ccc(F)cc1			0.0164 µM [rising, full curve]
CN1CCN(c2ccc(S(C)(=O)=O)cc2[N+](=O)[O-])CC1	-6.51%	6.51 µM [rising, single point]	

SMILES	cell number change	AC50 [1]	AC50 [2]
COc1cccc(-n2c(=S)[nH]c3ccccc3c2=O)c1	-23.3%		
Oc1ccc2c3c1O[C@H]1[C@@H](O)CC[C@@]4(O)[C@@H](C2)N(CC2CCC2)CC[C@]314	-29.6% and -25.8%	20.6 µM [falling, single point]	
CCc1nc2ccc(N3CCN(C)CC3)cc2nc1CC	-7.95%	0.0058 µM [falling, full curve, poor fit]	
COC1=CC(=O)O[C@@H](/C=C/c2ccccc2)C1	23.5%	29.1 µM [rising, single point]	
CC(C)(C)C(=O)c1cn(Cc2ccccc2)c2ccccc12	-30.5%		5.8 µM [falling, partial curve]
Cc1ccc2[nH]c(=S)n(-c3cccnc3)c(=O)c2c1	41.7%		11.6 µM [rising, single point]
O=c1[nH]c(=O)n(Cc2ccc(F)cc2)c(O)c1/C=N/Nc1ccccc1		0.58 µM [rising, full curve]	
Cc1ccc2c(c1N)C(=O)c1ccccc1C2=O	-64.1%	0.116 µM [rising, single point]	4.11 µM [falling, single point]
C=COCCn1c(C)c(C(=O)OCC)c2cc(O)ccc21		1.46 µM [rising, single point]	2.06 µM [rising, single point]
CN1CCC(N(C)c2ncnc3ccc(Br)cc23)CC1	7.62%	0.651 µM [falling, single point]	
COc1ccc(OC)c(NC2=NCCS2)c1	144%	18.4 µM [rising, single point]	4.11 µM [falling, single point]
COc1cccc(CN2CCNCC2)c1OC	3.67%	16.4 µM [falling, single point]	
N#CCCn1cc(C(=O)O)c(-c2cccc([N+](=O)[O-])c2)n1	-16.4%	0.366 µM [rising, full curve, poor fit]	
COc1ccc(-c2cc(=NCCCCCC(=O)O)c3cc(C)ccc3o2)cc1	-0.648%		
CN(C)P(=O)(CCl)Nc1ccccc1 (stereo not drawn)	-13.3%	0.13 µM [falling, full curve, poor fit]	
COc1ccc(OC)c(/C=N/OC(=O)Nc2ccc(Cl)cc2)c1	-13.1%		
CC(=O)Nc1ccccc1C(=O)OCc1ccc(F)cc1	18.4%	32.6 µM [rising, partial curve, poor fit]	
CCN1C(=O)NC(=O)/C(=C\c2cn(CC(=O)N3CCCCC3C)c3ccccc23)C1=O (stereo not drawn)	-18.1%		
O=S(=O)(c1ccc(F)cc1)N1CCCC1c1cccnc1 (stereo not drawn)	0.746%	6.51 µM [falling, single point]	
Cc1ncc(CN2CCCC(C(=O)c3ccc(C(C)(C)C)cc3)C2)s1 (stereo not drawn)	-26.4%	0.651 µM [falling, full curve, poor fit]	
